{"sequences": {"note": "The chains behind the UniProt entries cited, without tags or fusion partners.", "UniProt Q03267": "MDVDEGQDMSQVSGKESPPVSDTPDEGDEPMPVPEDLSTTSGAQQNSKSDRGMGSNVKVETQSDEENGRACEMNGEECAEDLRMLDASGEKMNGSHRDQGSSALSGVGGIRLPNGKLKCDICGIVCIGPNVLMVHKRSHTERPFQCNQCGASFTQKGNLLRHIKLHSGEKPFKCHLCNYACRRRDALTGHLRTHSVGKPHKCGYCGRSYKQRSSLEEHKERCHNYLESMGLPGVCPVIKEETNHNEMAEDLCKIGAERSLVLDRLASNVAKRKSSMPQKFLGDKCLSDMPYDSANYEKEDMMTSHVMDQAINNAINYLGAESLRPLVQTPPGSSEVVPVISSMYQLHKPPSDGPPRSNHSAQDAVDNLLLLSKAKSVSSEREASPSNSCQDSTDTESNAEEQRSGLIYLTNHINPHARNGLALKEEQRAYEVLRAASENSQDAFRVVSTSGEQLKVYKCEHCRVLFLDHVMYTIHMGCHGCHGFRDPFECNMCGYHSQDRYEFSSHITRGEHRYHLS"}, "source": "paper PMC12463629", "target": "T1, HDAC3 (UniProt O88895)", "T1 sequence": "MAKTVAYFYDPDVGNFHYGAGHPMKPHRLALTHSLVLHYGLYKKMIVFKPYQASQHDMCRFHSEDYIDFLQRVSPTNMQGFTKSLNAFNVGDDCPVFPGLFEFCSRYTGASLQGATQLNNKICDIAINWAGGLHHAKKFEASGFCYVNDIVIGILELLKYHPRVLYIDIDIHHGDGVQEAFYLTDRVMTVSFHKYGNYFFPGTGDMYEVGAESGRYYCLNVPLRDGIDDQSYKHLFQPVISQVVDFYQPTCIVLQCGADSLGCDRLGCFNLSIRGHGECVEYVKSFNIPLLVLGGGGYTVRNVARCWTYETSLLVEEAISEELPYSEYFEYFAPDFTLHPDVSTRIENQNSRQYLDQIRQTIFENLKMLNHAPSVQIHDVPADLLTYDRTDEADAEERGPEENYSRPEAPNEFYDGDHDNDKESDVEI", "assay": "co-IP; cell lysate under LPS stimulation; 300 µg protein, 1 µg specific antibody overnight at 4°C, Protein A/G beads 2 h at 4°C, five washes with IP lysis buffer, Western blot", "note": "No constants are given. Whether binding was seen depends on the method and setting. Binding seen in cells or lysates may run through a third protein. Some binding calls cover weakened binding; strength is not graded here."}
{"substance": "Ikaros family zinc finger 1 (IKZF1) (from UniProt Q03267 1-517)", "values": [{"measurement": "binding", "result": "binds"}]}
